The values that follow come from article PMC6123687.

By UniProt entry, the sequences of proteins in these tests, tags left out. Where a name states a change or a piece, a line headed by the entry shows the natural chain unless it says otherwise.
UniProt A0A346XLJ4: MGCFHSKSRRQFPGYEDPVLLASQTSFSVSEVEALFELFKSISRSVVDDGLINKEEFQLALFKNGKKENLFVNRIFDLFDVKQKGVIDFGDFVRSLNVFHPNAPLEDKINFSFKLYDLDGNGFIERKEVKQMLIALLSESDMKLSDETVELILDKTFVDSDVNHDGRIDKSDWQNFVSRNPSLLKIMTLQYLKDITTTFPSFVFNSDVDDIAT

Results are given in words; binding and its absence hold for the method and conditions named. Binding can be weak; no strength is given. For part of these data: Where a sequence is shown, tags or fusion partners need not be part of it. For part of these data: In cells and extracts the contact can be indirect.

For assay [1], the target named is T1, GST-CIPK1 (GST-AtCIPK1) fusion protein (Arabidopsis) (UniProt Q8RWC9).
T1 sequence: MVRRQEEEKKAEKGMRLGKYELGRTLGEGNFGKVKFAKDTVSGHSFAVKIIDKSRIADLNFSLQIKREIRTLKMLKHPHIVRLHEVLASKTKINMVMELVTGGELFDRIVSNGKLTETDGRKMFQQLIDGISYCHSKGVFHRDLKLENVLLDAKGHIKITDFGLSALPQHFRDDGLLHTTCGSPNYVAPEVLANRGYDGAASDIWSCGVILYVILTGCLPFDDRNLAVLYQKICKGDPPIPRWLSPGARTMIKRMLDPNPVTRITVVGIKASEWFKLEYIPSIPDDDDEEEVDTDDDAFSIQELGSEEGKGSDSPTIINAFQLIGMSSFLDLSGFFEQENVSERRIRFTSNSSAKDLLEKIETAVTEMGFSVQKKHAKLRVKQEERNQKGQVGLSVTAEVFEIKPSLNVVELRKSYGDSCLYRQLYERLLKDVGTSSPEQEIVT
The assay is described as follows: pull-down; GST or GST-CIPK1 on glutathione-Sepharose 4B beads, SjCBL1:HA as prey; 4°C, 1 h; 50 mM Tris-HCl pH 7.4, 100 mM NaCl, 0.05% Tween 20, 1 mM PMSF, with either 1 mM CaCl2 or 2 mM EGTA; anti-HA immunoblot; both purified.

The target of assay [2] is T2, SCFP3A^C155-CIPK1 (pMAS-SCYCE(R)⋅CIPK1) (Arabidopsis) (UniProt Q8RWC9).
T2 sequence: T1 sequence
The assay is described as follows: split reporter; multicolor BiFC (VENUS N173 + SCFP3A C155) in tobacco (Nicotiana benthamiana) leaf epidermal cells, Agrobacterium infiltration, confocal microscopy.

For assay [3], the target named is T3, CIPK1-YFP^N (pUC-SPYNE⋅CIPK1) (Arabidopsis) (UniProt Q8RWC9).
T3 sequence: T1 sequence
The experiment in a line: split reporter; BiFC (split YFP) in onion epidermal cells, particle bombardment, 18 h at 23°C, confocal microscopy.

For the substance “SjCBL1 tagged with a hemagglutinin epitope (SjCBL1:HA), GST removed by thrombin (from UniProt A0A346XLJ4)”, the binding entry in assay [1] is “binds”.

Take “SjCBL1-VENUS^N173 (pVYNE⋅SjCBL1) (Sedirea japonica)”: the binding entry in assay [2] is recorded as “binds”.

Take “SjCBL1-YFP^C (pUC-SPYCE⋅SjCBL1) (Sedirea japonica)”: the binding result in assay [3] was “binds”.
